This experiment deals with Myc-HRAS (UniProt P01112). As to the kind of experiment: co-IP; HEK293 cells co-transfected with the tagged candidate and Myc-HRAS; whole cell lysates (RIPA buffer) immunoprecipitated with anti-Myc antibody; immunoblot.

The chains behind the UniProt entries cited, without tags or fusion partners. Residues count along the entry.
UniProt Q01638, residues 19-556: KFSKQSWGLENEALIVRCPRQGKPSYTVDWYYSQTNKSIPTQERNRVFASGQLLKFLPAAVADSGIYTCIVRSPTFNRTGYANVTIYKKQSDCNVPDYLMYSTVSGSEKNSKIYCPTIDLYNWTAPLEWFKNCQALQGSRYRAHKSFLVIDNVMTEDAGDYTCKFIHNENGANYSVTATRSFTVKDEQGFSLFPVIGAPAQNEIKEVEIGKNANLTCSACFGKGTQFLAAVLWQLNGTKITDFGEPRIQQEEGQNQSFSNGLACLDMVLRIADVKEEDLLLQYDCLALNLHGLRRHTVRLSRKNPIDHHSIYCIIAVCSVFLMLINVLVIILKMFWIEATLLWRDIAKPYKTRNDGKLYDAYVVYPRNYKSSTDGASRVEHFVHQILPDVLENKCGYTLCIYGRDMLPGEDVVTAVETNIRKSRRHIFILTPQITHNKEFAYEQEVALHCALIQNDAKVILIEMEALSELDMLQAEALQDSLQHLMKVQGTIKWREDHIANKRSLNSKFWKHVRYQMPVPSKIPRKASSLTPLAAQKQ

These are yes or no findings as the source states them, for the method shown. Binding seen in cells or lysates may run through a third protein. Some entries that bind do so weakly or less than the wild type.

Turning to V5-IL1RL1 (from UniProt Q01638 19-556), the binding result is reported as “binds”.

For the origin of these results see PMC6336889.
